Measured values taken from US11571403B2, “Methods for the treatment of non-alcoholic steatohepatitis” (Eiger Biopharmaceuticals, Inc., priority 2016, dated 2023).

Test system: STAM mouse model for NASH
Assay: Plasma LTB4, STAM mouse NASH model (Example 1)
Format: in vivo

Row | SMILES | Plasma LTB4 relative to the control (telmisartan (10 mg/kg QD, 7 to 9 weeks)) | Plasma LTB4 relative to the control (ubenimex high dose (25 mg/kg BID, 7 to 9 weeks)) | Plasma LTB4 relative to the control (ubenimex low dose (5 mg/kg BID, 7 to 9 weeks))
1 | CCCc1nc2c(C)cc(-c3nc4ccccc4n3C)cc2n1Cc1ccc(-c2ccccc2C(=O)O)cc1 [Telmisartan, telmisartan] | some tendency to increase plasma LTB4 | – | –
2 | CC(C)C[C@H](NC(=O)[C@@H](O)[C@H](N)Cc1ccccc1)C(=O)O [Ubenimex, (2S)-2-[[(2S,3R)-3-amino-2-hydroxy-4-phenylbutanoyl]amino]-4-methylpentanoic acid] | – | not statistically different | some tendency to increase plasma LTB4
